Data taken from US20230416361A1.
Substitutions are numbered along the chain they refer to. Results are given in words; binding and its absence hold for the method and conditions named.

B1: anti-CD200R antibody clone 21.3.1 (mIgG1k isotype) (antibody, V domains shown)
VH: QVQLQQPGSELVRPGASVKLSCKASGHTFTSYWMHWVKQRPGQGLEWIGNIYPGSGSINYDEKFKSKAKLTVDTSSRTAYMQLSSLTSEDSAVYYCLTMTGTSWGQGTLVTVSA
VL: DVQMIQSPSSLSASLGDIVTMTCQASQGTPINLHWFQQKPGKAPKLLISGASNLEDGVPSRFSGSRYGTAFTLTISSLEDEDMATYFCLQFTYIPWTFGGGTKLEIKR
B2: anti-CD200R antibody clone 3.10.2 (mIgG1k isotype) (antibody, V domains shown)
VH: QVQLQQPGSELVRPGASVKLSCKASGYTFTSYWMHWVKQRPGQGLEWIGNIFPGSDTTNYDEKFKSKAIMTVDISSSTVYMHLSSLTSEDSAVYYCITYTGAYWGQGTLVTVSA
VL: B1 VL with L15M, P30N, A51G, A70D, I94L, E105D
B3: anti-CD200R antibody clone 7.12.2 (mIgG1k isotype) (antibody, V domains shown)
VH: B1 VH with H27Y, S57T, I58T, K69T, R77S, L83I, L97T, M99G, G101S, S103Y
VL: B1 VL with P30S, H34N, S49Y, S52V, A70D, I75V, F91H, I94L
B4: anti-CD200R antibody clone 26.1.2 (mIgG1k isotype) (antibody, V domains shown)
VH: EVQLQQSGPELVKPGASVKMSCKASGYTFTSYVMHWVKQKPGQGLEWIGYIHPYNDDIKHNEKFKDKATLTSAKSSSTVYMELSSLTSEDSAVYYCAREEYYGSRFAYWGQGTLVTVSA
VL: DIVLTQSPASLAVSLGQRATISCRASKSVRTSGYSYLHWYQQKPGQPPKLLIYLASNLESGVPARFSGSGSGTDFTLNIHPVEEEDAATYYCQYSGELPFTFGGGTKLEIKR

Molecular target: soluble cynomolgus macaque CD200RLa (cynomolgus macaque)
Experiment: SPR, captured antibody, soluble receptor injected, 37 C

Row | Binder | binding
1 | B1 | no binding (tested: 2 µM)
2 | B2 | no binding (tested: 2 µM)
3 | B3 | no binding (tested: 2 µM)
4 | B4 | no binding (tested: 2 µM)
